Assay results taken from PubChem BioAssay AID2685 (National Center for Advancing Translational Sciences (NCATS), 2010).
The list shows a part of the results. Further columns of the screen follow, without active or inactive calls. Most of these compounds were active or inconclusive in the main read-out, so they are no random draw. Potencies come from curve fits of mixed quality, noted in brackets.

Experiment: qHTS Assay for Lipid Storage Modulators in Drosophila S3 Cells;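 as to cell number change: cells counted by Cell Tracker Red CMTPX staining in the red channel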
Conditions: BODIPY lipid droplet fluorescence, 18-24 h; for cell number change: measured here: cell count max response, cells fed with added oleic acid
Procedure, shortened: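 Laser-scanning cytometry quantifies lipid droplet accumulation (500–530 nm total intensity; droplet/cell object ratio) in oleic acid-fed (400 uM added) Drosophila S3 cells treated with a concentration series. 20 uM Triacsin C defined 100% inhibition.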

[1] = measured here: lipid fluorescence (Fed channel) AC50, cells fed with added oleic acid
[2] = measured here: cell number channel AC50, cells fed with added oleic acid

Row | SMILES | cell number change | AC50 [1] | AC50 [2]
1 | Cn1c(=O)c2c(SCC(=O)Nc3cccc(F)c3)nc(-c3ccco3)nc2n(C)c1=O | -17.6% | 6.51 µM [falling, full curve, poor fit] | 
2 | COc1ccc(N2CCN(C(c3cccs3)C(C)NC(=O)C(=O)N3CCCCC3)CC2)cc1 (centres undefined) | 4.78% | 16.4 µM [falling, single point] | 
3 | Cc1cccc(NC(=O)CSc2nnc(CNC(=O)c3cccs3)o2)c1C | -14.9% |  | 
4 | COc1cc(OC)c(-n2c(C)cc(C=O)c2C)cc1Cl | -4.42% | 1.3 µM [falling, partial curve] | 0.731 µM [falling, full curve]
5 | O=c1c(Cc2ccc(Cl)cc2Cl)c(O)ccn1CC(F)(F)F | -52.1% | 20.6 µM [falling, single point] | 18.4 µM [falling, single point]
6 | CC(C)CN(C(=O)CSc1ncnc2ccccc12)C1CCS(=O)(=O)C1 (centres undefined) | -1.16% | 6.51 µM [rising, single point] | 
7 | CCC(C(=O)Nc1ccccc1)c1ccccc1 (centres undefined) | 79.5% | 23.1 µM [rising, partial curve, poor fit] | 23.1 µM [rising, single point]
8 | CN(C)S(=O)(=O)c1ccc(NCC2COc3ccccc3O2)c([N+](=O)[O-])c1 (centres undefined) | -25.9% | 29.1 µM [falling, single point] | 
9 | O=C(N/N=C/C1CCCCC1)c1ccccn1 | -22.4% | 6.51 µM [rising, single point] | 
10 | O=C(Nc1ccn(Cc2ccccc2)n1)c1ccc(F)cc1 | -16.6% | 18.4 µM [falling, single point] | 
11 | O=C(NCc1ccncc1)C(=O)NCC(c1ccco1)N1CCN(c2ccc(F)cc2)CC1 (centres undefined) | 24% |  | 1.84 µM [rising, full curve, poor fit]
12 | COc1ccc(CN(C)CC(O)COC(c2ccc(OC)cc2)c2ccc(OC)cc2)cc1 (centres undefined) | -3.95% | 0.447 µM [falling, single point] | 
13 | c1ccc2c(-c3nc(C4CCCCC4)no3)cc(-c3ccncc3)nc2c1 |  | 1.84 µM [rising, partial curve] | 1.46 µM [rising, partial curve]
14 | CN(CC(=O)Nc1cccc(F)c1)CC(=O)Nc1cc(S(=O)(=O)N2CCOCC2)ccc1Cl | -7.98% | 6.51 µM [falling, single point] | 
15 | O=C(CC(C(=O)O)c1c(F)cccc1Cl)c1ccc(Cl)cc1 (centres undefined) | 31.5% |  | 4.11 µM [rising, full curve, poor fit]
16 | COc1ccc(C(C#N)N2CCC(c3ccccc3)=N2)cc1 (centres undefined) | 31.2% |  | 5.17 µM [rising, single point]
17 | CCOc1ccccc1/C=N/Nc1nc2ccccc2o1 | -10.3% |  | 
18 | COc1ccc(OC)c(NC(=O)Cn2cc(C#N)c3ccccc32)c1 | 0.0661% | 6.51 µM [rising, single point] | 
19 | Cc1ccc(S(=O)(=O)Nc2ccccc2C(=O)Nc2nc(-c3ccc(F)cc3)cs2)cc1 | -39.4% |  | 18.4 µM [falling, single point]

Some values from the results shown:
AC50 [2] with `COc1cc(OC)c(-n2c(C)cc(C=O)c2C)cc1Cl` reads 0.731 µM [falling, full curve]
cell number change with `COc1ccc(N2CCN(C(c3cccs3)C(C)NC(=O)C(=O)N3CCCCC3)CC2)cc1` (centres undefined) reads 4.78%

Next part

Row | SMILES | cell number change | AC50 [1] | AC50 [2]
20 | O=C(O)CCCCCn1c(SCC(=O)Nc2ccc(F)cc2)nc2ccsc2c1=O | 3.19% |  | 3.66 µM [falling, single point]
21 | COc1ccc(C(=O)C2CCCN(Cc3ccc4nonc4c3)C2)cc1OC (centres undefined) | 24.2% | 14.6 µM [rising, partial curve, poor fit] | 
22 | CC(C)C[C@H](NC(=O)c1[nH]cnc1C(=O)N[C@H](C)c1ccccc1)C(=O)OCc1ccccc1 | -0.742% | 0.00411 µM [falling, full curve, poor fit] | 
23 | O=C(Nc1ccc(N2CCN(c3ccccc3)CC2)c(F)c1)C1CC1 | -20.5% | 0.82 µM [falling, single point] | 6.51 µM [rising, single point]
24 | CCN1C(=O)/C(=C\N2CCN(c3ccc(F)cc3)CC2)SC1=S |  | 1.16 µM [rising, full curve] | 1.3 µM [rising, partial curve]
25 | Cc1ccc(SCC(=O)OCC(=O)N(CC(C)C)c2c(N)n(Cc3ccccc3)c(=O)[nH]c2=O)c(C)c1 | -50.6% | 18.4 µM [falling, single point] | 29.1 µM [falling, single point]
26 | O=C(COc1ccc(S(=O)(=O)N2CCOCC2)cc1)NCc1ccccc1 | -14.4% |  | 
27 | Nc1ccccc1SC1CC(=O)N(c2ccc3c(c2)OCCO3)C1=O (centres undefined) | 15% | 6.51 µM [falling, single point] | 
28 | Cc1ccc(C(=O)NCCONC(=O)c2ccc(C)cc2)cc1 | -13.1% | 5.62 µM [falling, single point] | 
29 | Cn1c(NCc2ccccc2)cc(=O)n(C)c1=O | 3.06% | 0.326 µM [falling, full curve] | 
30 | OCCN(Cc1ccccc1)Cc1ccc(F)c(F)c1 | -7.08% | 1.84 µM [falling, full curve] | 
31 | CCOC(=O)c1cc(C(=O)NCc2ccc(Cl)cc2Cl)nn1C |  | 11.6 µM [rising, partial curve] | 
32 | Cc1nn(-c2ccccc2)c(N)c1N=Nc1cccc(S(=O)(=O)N2CCOCC2)c1 | -29.2% | 29.1 µM [falling, single point] | 
33 | CCOc1ccc(NC(=O)c2ccc(NC(=O)COC(=O)Cc3ccc(OC)cc3)cc2)cc1 | 6.37% | 23.1 µM [rising, single point] | 
34 | CS(=O)(=O)c1cccc(C(=O)Nc2cccc(S(=O)(=O)N3CCCC3)c2)c1 | 3% |  | 
35 | COc1cc(C(=O)NC(C)c2ccc(-n3ccnc3)cc2)cc(OC)c1C (centres undefined) | 15.1% | 23.1 µM [rising, single point] | 1.84 µM [rising, partial curve, poor fit]
36 | Cc1coc(NC(=O)CSc2nc(-c3ccncc3)cc(C(F)(F)F)c2C#N)n1 |  | 0.231 µM [rising, full curve] | 0.82 µM [rising, partial curve]
37 | CCn1c(-c2cccnc2Cl)nc2cc(Cl)c(Cl)cc21 |  | 0.366 µM [falling, partial curve, poor fit] | 
